The list shows a part of the results.
Legend:
Test in all cases: log2 fold change, soluble protein after heating vs DMSO (PISA); higher = thermal stabilisation; K562 cells, 10 uM, 30 min; active = over 0.2 and 3.5 SD of the protein, either way, in both replicates (recomputed)
nilotinib = compound: Cc1cn(-c2cc(NC(=O)c3ccc(C)c(Nc4nccc(-c5cccnc5)n4)c3)cc(C(F)(F)F)c2)cn1 [nilotinib]
In short: (§1)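 Quantification of soluble protein used TMTpro 16plex LC-MS/MS, with channel sums equalised. Samples were the supernatant after 21,000xg for 90 min of pooled aliquots from K562 cells (2×10^6 cells/mL) treated with 10 μM compound for 30 min, heated for 3 min over 48°C-58°C, and extracted in PBS with 0.5% NP-40 at 4°C. Values, from duplicates, describe thermal stability against control samples on a log2 fold-change scale.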

Amino acid sequences for entries named in this document (tags omitted). A change or cut given only in a name is not applied to a line headed by its entry.
UniProt Q96MY1: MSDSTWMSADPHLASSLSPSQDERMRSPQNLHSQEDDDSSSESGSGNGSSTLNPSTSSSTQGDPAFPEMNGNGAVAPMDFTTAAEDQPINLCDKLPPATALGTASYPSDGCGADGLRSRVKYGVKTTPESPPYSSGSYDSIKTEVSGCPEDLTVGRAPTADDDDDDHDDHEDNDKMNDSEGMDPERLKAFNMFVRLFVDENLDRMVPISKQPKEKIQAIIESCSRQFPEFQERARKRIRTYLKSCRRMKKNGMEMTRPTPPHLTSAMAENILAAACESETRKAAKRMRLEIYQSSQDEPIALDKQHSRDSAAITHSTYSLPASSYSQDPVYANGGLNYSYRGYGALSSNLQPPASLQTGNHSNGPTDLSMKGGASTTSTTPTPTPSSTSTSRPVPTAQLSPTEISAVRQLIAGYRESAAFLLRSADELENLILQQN
UniProt Q6KC79: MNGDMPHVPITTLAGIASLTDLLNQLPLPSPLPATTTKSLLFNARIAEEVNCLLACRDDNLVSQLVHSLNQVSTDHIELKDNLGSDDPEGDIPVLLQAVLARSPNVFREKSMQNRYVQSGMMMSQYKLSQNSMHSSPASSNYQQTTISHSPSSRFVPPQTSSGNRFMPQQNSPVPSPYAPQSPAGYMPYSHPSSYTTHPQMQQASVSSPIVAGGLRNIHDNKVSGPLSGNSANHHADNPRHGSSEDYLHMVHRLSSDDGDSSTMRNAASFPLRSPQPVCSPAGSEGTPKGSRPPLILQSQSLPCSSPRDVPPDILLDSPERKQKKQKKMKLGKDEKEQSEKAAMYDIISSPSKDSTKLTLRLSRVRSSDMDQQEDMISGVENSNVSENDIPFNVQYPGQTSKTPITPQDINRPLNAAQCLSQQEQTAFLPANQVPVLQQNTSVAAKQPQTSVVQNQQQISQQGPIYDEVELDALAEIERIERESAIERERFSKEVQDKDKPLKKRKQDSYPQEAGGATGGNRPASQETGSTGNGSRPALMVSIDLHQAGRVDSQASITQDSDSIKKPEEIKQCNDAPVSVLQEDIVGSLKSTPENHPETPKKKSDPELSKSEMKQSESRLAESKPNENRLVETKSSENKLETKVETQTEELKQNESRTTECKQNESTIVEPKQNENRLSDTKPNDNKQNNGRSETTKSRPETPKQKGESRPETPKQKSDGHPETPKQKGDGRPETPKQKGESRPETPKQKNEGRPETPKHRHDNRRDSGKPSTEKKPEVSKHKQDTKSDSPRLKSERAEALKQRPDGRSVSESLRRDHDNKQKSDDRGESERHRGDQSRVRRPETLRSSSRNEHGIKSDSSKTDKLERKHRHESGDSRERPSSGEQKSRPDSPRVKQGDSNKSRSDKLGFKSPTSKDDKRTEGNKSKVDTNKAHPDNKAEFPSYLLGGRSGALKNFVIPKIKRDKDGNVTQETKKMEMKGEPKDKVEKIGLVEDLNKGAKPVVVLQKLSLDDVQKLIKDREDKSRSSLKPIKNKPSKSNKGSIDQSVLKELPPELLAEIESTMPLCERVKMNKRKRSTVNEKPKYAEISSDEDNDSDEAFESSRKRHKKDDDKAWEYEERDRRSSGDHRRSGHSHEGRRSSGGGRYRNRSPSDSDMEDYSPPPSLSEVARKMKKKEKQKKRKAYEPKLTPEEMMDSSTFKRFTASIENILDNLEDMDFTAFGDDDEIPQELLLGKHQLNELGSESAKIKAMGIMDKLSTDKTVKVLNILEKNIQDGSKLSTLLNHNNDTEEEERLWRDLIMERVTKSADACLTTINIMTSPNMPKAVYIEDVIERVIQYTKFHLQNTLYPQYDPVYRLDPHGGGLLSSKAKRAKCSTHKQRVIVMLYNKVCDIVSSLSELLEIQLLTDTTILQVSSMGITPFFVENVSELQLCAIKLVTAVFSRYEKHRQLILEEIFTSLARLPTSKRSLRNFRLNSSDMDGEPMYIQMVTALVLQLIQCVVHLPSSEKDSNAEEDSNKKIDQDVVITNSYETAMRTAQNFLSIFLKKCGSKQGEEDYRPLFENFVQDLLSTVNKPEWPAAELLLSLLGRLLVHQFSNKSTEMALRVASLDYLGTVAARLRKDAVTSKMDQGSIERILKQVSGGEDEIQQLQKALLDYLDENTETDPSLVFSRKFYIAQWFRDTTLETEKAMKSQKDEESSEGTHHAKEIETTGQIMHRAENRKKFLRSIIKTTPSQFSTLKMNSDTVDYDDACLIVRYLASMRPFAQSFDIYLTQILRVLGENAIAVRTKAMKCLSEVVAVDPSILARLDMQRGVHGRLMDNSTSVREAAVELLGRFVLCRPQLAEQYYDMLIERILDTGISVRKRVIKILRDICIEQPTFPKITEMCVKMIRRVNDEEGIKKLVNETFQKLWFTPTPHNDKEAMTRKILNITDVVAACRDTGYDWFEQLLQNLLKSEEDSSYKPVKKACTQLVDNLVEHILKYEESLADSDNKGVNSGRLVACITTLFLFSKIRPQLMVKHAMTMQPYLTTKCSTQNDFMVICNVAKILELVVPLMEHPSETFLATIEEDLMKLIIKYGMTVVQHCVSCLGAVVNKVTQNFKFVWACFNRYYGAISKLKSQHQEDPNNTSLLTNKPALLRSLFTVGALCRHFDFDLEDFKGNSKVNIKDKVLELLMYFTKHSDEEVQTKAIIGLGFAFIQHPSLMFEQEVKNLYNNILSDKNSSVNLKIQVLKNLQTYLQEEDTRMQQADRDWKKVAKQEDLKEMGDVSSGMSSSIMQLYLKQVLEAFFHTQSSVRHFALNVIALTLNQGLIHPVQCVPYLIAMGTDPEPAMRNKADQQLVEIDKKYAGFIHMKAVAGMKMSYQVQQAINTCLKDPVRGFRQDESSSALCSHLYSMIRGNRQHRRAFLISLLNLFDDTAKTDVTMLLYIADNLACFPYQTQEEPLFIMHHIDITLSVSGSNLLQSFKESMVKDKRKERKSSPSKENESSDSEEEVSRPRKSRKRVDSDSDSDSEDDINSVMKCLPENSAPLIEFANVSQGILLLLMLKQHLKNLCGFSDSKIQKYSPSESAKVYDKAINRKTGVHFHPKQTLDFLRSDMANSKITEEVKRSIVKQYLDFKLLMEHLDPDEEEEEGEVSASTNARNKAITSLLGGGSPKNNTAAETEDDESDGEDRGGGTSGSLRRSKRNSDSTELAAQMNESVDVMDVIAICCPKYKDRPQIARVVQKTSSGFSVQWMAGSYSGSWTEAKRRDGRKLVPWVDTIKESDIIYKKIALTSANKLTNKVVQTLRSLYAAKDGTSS
UniProt Q14494: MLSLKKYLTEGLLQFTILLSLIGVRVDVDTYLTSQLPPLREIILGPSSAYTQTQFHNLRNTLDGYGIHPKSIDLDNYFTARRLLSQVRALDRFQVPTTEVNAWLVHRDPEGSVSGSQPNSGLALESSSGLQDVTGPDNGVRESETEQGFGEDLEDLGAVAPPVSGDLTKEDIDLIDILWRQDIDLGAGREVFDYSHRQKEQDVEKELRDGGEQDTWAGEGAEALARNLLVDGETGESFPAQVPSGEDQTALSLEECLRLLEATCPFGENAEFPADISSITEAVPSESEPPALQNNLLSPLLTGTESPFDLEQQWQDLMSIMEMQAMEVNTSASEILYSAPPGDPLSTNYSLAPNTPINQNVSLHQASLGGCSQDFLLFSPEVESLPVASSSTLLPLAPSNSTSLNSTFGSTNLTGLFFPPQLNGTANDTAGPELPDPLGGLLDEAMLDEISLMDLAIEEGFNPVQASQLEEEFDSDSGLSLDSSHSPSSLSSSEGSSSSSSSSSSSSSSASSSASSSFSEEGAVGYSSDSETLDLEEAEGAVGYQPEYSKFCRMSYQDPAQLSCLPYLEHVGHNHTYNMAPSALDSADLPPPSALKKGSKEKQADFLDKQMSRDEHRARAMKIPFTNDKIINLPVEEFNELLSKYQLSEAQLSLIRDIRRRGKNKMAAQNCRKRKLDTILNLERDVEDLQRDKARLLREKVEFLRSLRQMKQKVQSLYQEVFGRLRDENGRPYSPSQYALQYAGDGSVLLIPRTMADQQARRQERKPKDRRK
UniProt Q9NPE3: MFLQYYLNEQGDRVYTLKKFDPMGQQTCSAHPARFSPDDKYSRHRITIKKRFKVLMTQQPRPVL
UniProt O75052: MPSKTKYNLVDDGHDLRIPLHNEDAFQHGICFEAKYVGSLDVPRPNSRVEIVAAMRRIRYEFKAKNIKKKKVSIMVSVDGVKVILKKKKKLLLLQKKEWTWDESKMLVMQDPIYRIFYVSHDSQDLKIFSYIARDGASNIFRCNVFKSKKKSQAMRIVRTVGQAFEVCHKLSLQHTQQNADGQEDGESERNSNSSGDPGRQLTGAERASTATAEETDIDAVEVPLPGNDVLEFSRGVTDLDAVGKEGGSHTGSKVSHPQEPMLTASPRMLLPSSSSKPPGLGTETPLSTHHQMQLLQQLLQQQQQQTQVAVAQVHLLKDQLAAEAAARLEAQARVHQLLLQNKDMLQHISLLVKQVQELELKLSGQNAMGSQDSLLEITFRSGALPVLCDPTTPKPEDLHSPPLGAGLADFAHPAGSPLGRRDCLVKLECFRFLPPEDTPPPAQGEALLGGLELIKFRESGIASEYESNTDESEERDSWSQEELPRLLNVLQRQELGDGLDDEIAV
UniProt P13056: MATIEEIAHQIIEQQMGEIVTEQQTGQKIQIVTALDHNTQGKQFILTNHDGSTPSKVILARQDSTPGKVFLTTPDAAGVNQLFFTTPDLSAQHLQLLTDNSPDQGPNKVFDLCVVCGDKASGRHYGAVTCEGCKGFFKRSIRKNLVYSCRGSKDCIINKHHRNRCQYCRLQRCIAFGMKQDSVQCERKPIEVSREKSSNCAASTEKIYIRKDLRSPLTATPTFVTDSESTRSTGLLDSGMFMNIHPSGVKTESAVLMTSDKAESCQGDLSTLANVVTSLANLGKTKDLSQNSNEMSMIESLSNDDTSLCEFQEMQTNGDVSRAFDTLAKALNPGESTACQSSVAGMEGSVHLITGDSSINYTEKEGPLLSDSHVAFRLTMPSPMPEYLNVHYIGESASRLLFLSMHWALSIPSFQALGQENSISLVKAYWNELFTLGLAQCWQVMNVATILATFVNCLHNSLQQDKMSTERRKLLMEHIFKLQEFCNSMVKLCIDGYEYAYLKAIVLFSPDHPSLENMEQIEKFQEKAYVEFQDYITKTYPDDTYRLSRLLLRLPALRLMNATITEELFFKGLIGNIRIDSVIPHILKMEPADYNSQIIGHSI
UniProt P04150: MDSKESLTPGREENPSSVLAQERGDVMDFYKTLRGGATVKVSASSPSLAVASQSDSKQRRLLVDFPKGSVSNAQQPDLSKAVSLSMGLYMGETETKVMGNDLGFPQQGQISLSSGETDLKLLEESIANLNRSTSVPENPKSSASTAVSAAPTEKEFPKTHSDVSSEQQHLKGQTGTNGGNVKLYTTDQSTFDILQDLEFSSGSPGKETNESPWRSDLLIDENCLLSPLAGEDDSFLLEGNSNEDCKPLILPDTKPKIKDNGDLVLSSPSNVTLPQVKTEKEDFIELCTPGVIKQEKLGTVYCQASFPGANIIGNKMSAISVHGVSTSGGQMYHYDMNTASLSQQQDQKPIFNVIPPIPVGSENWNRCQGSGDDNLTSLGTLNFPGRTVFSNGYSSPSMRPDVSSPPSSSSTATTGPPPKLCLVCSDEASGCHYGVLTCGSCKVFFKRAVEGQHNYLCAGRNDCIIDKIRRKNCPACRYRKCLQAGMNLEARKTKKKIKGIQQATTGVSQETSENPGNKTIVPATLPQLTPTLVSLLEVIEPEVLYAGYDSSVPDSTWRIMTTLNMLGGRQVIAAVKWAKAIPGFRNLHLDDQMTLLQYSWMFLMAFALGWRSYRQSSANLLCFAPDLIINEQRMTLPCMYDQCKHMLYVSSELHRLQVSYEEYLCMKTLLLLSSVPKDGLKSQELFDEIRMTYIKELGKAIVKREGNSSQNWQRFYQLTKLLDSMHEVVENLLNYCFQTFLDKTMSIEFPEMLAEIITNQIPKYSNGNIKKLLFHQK
UniProt Q8NEJ9: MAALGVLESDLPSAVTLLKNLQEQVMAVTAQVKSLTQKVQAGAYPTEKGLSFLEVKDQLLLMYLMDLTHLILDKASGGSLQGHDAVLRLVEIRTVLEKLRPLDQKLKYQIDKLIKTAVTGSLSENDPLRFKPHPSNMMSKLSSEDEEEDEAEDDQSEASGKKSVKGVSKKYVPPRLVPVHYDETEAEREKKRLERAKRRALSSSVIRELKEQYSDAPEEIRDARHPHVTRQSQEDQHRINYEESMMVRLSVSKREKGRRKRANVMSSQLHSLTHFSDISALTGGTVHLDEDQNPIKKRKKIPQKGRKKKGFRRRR
UniProt Q9GZP1: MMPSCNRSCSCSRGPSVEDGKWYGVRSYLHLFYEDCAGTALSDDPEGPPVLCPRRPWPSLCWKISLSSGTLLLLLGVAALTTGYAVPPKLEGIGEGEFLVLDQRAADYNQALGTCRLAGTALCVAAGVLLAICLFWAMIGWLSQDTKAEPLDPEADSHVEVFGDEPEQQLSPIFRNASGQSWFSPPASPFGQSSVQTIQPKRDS

[1] = compound: Cc1nc(Nc2n[nH]c3c2CN(C(=O)N[C@H](CN(C)C)c2ccccc2)C3(C)C)c2sccc2n1
In short: as §1

dasatinib = compound: Cc1nc(Nc2ncc(C(=O)Nc3c(C)cccc3Cl)s2)cc(N2CCN(CCO)CC2)n1 [dasatinib]
In short: as §1

[2] = compound: Cc1ncc(-c2ccnc(Nc3ccc(S(C)(=O)=O)cc3)n2)n1C(C)C
In short: as §1

bafetinib = compound: Cc1ccc(NC(=O)c2ccc(CN3CC[C@H](N(C)C)C3)c(C(F)(F)F)c2)cc1Nc1nccc(-c2cncnc2)n1 [bafetinib]
In short: as §1

tipifarnib = compound: Cn1cncc1[C@@](N)(c1ccc(Cl)cc1)c1ccc2c(c1)c(-c1cccc(Cl)c1)cc(=O)n2C [tipifarnib]
In short: as §1

[3] = compound: Cn1cc(-c2ccc3c(c2)CCN3C(=O)Cc2cccc(C(F)(F)F)c2)c2c(N)ncnc21
In short: as §1

[4] = compound: Cn1cc(-c2ccc3nnc(C(F)(F)c4ccc5ncccc5c4)n3n2)cn1
In short: as §1

mubritinib = compound: FC(F)(F)c1ccc(/C=C/c2nc(COc3ccc(CCCCn4ccnn4)cc3)co2)cc1 [mubritinib]
In short: as §1

[5] = compound: Cc1cccc(CC(=O)N2CCc3c2ccc(-c2cn(C)c4ncnc(N)c24)c3F)n1
In short: as §1

Measured: log2 fold change

NOL4L (UniProt Q96MY1)
inactive: nilotinib -0.126 | [1] -0.015 | dasatinib 0.036 | [2] -0.018

NIPBL (UniProt Q6KC79)
inactive: bafetinib -0.473 | tipifarnib 0.263

NLRC3 isoform 2 (UniProt Q7RTR2)
inactive: bafetinib -0.184 | nilotinib -0.231 | [1] 0.047 | dasatinib 0.05 | [2] -0.114 | [3] -0.116 | [4] 0.085 | tipifarnib 0.268 | mubritinib 0.055

NFE2L1 (UniProt Q14494)
inactive: [5] -0.18 | [3] -0.113 | tipifarnib -0.023

NOP10 (UniProt Q9NPE3)
inactive: bafetinib 0.079 | nilotinib 0.028 | [1] 0.02 | dasatinib 0.084 | [2] -0.006 | [3] -0.192 | [4] 0.001 | tipifarnib 0.02 | mubritinib -0.162

NME4 (UniProt O00746)
inactive: [5] -0.098 | [4] -0.122 | mubritinib -0.166

NOS1AP (UniProt O75052)
inactive: bafetinib -0.052 | [3] 0.067 | [4] -0.179 | tipifarnib -0.037 | mubritinib 0.165

NEK3 (UniProt P51956)
inactive: [5] -0.246 | nilotinib -0.026 | [1] -0.173 | dasatinib -0.055 | [2] -0.037 | [3] 0.101 | [4] -0.002 | tipifarnib -0.088 | mubritinib -0.076

NOTCH1 (UniProt P46531)
inactive: nilotinib -0.03 | [1] -0.254 | [2] 0.158

NRBP2 (UniProt Q9NSY0)
inactive: [4] -0.12

NR2C1 (UniProt P13056)
inactive: bafetinib -0.298 | nilotinib -0.004 | [1] -0.028 | [2] 0.172 | mubritinib 0.034

Reprinted at random: 2 records from the list
NEK3 (UniProt P51956)
inactive: [5] -0.246 | nilotinib -0.026 | [1] -0.173 | dasatinib -0.055 | [2] -0.037 | [3] 0.101 | [4] -0.002 | tipifarnib -0.088 | mubritinib -0.076

NOTCH1 (UniProt P46531)
inactive: nilotinib -0.03 | [1] -0.254 | [2] 0.158

(continued)

NPC1L1 (UniProt Q9UHC9)
inactive: bafetinib -0.05 | nilotinib 0.659 | [1] 0.52 | dasatinib -0.117 | [3] 0.012 | tipifarnib 0.094 | mubritinib 0.008
active: [2] -0.384

NR3C1 isoform 3 (UniProt P04150)
inactive: nilotinib 0.084 | [1] -0.009 | dasatinib -0.205 | [2] 0.025 | [3] 0.313 | tipifarnib -0.248 | mubritinib -0.156

NGDN (UniProt Q8NEJ9)
inactive: [3] -0.074 | [4] -0.011

NRSN2 (UniProt Q9GZP1)
inactive: dasatinib 0.052

From the supplement of paper PMC10849652
